The record followed here is paper PMC11873960, “Coupled Heterogeneity to Dimeric Site-Specific Binding by the POU-Family Transcription Factor OCT2” (The Journal of Physical Chemistry. B, 2025).

The comparison behind a weaker result is the experiment's own reference, which may not be listed here. Where a protein sequence is shown, tags need not be part of it.

The target of the data set is T1, OCT2 DBD (POU domain) (Homo sapiens) (UniProt P09086).
T1 sequence (looked up): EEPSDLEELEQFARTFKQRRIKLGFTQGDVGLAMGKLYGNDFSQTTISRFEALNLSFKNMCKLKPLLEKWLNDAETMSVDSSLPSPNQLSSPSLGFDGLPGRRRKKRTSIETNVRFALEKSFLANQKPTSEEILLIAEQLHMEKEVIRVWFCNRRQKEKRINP
Briefly: fluorescence anisotropy. The conditions noted are these: 0.15 M Na+, binding negligible relative to MORE; FP: 5 nM probe, 10 mM Bis-Tris pH 6.5, 0.01% BSA, 0.15-0.35 M NaCl, 25 C overnight, Hill fit with nH = 2 (macroscopic KD of dimer); recombinant protein; residues 195-357; protein details: N-terminal His6 removed by thrombin; label: 5'-HEX. (In general: In fluorescence polarisation assays a small probe gives low polarisation when free and higher when bound to something large.)

In the case of “CTACTTCCGTATACGGAAGTAG (double strand) [scrambled-sequence (off-target) probe, HEX-labelled]”, the binding result is “binds more weakly”.
